Test results taken from PubChem BioAssay AID330 (DTP/NCI, 2004).
The list shows only some results of the screen, not a fair sample: it gathers tests that were run many times, whatever their T/C, doses with no T/C, and many T/C values between a quarter and a half above the control. Other doses and runs of a compound stand elsewhere. T/C: endpoint of the treated group in % of that of the vehicle group. Some entries give survivors of the animals treated and no T/C: the source files T/C as zero there, which appears to mark a toxic dose or a test without result, not a measured value. Some survivor counts are full or nearly so, which does not show that the dose was tolerated: the source hardly ever lists a survival T/C far under the control, and the zero likely stands for such cases as well. Counts of survivors are from the toxicity check (mostly the fifth day) where no day follows; animals may have died later. Schedules are NCI's codes, read here as Q, the interval in days (D) or hours (H), X, the number of doses. For survival time, the PubChem record calls one and a half times the control and up active, and a quarter to a half above the control has no call in these data; cut-offs in other NCI protocols can differ. Some entries were tested several times; the values are given in rising order.

Test system: P388 leukemia ip, CD2F1 mice, survival T/C
Assay: NCI In Vivo Anticancer Drug Screen. Data for tumor model P388 Leukemia (intraperitoneal) in CD2F1 (CDF1) mice
Conditions: T/C endpoint: median survival time, higher T/C = longer survival
[1] = dose: 200.0 mg/kg/injection, schedule: Q01DX009 (ip), vehicle: saline with Tween-80
[2] = dose: 200.0 mg/kg/injection, schedule: Q01DX005 (ip), vehicle: saline with Tween-80

With `Cc1cc(NCCCCCCCCNc2cc(C)nc3cc(N(C)C)ccc23)c2ccc(N(C)C)cc2n1` as the compound, how does the T/C (dose: 50.0 mg/kg/injection, schedule: Q04DX002 (ip), vehicle: distilled water + Tween-80 + alcohol) read?
The T/C was 142 % of control.

What about the survivor count (dose: 100.0 mg/kg/injection, schedule: Q04DX002 (ip), vehicle: distilled water + Tween-80 + alcohol) of the same compound?
The survivor count was 1 of 6.

What about the survivor count (dose: 200.0 mg/kg/injection, schedule: Q04DX002 (ip), vehicle: distilled water + Tween-80 + alcohol) of the same compound?
Its survivor count is 0 of 6.

What about the survivor count (dose: 400.0 mg/kg/injection, schedule: Q04DX002 (ip), vehicle: distilled water + Tween-80 + alcohol) of the same compound?
The survivor count was 0 of 6.

How did the survivor count [1] turn out when `CNC(=O)O/N=C/c1ccccc1-c1ccccc1` was run?
Its survivor count is 5 of 6.

With `CN(CCOc1c(I)cc(I)cc1I)CC(O)C(O)C(O)C(O)CO` (stereo not given) as the compound, how does the survivor count (dose: 100.0 mg/kg/injection, schedule: Q01DX009 (ip), vehicle: Klucel (hydroxypropylcellulose) (HPC)) read?
Its survivor count is 5 of 6.

What about the survivor count (dose: 200.0 mg/kg/injection, schedule: Q01DX009 (ip), vehicle: Klucel (hydroxypropylcellulose) (HPC)) of the same compound?
The survivor count was 0 of 6.

Which survivor count (dose: 200.0 mg/kg/injection, schedule: Q01DX005 (ip), vehicle: saline) does the source give for `CC(C)C/C=N\N=C(N)N` here?
Its survivor count is 0 of 6.

How did the survivor count (dose: 160.0 mg/kg/injection, schedule: Q01DX009 (ip), vehicle: Klucel (hydroxypropylcellulose) (HPC)) turn out when `COc1cc2c(cc1OC)C(Cc1ccc(OC)c(Oc3ccc(CC4c5cc(OC)c(OC)c(O)c5CCN4C)cc3)c1)N(C)CC2` (stereo not given) was run?
Its survivor count is 0 of 6.

How did the survivor count (dose: 50.0 mg/kg/injection, schedule: Q01DX005 (ip), vehicle: saline + Tween-80 + alcohol) turn out when `C1CCC2(CC1)N=C1CCCCC1S2` (stereo not given) was run?
Its survivor count is 0 of 6.

And the survivor count (dose: 100.0 mg/kg/injection, schedule: Q01DX005 (ip), vehicle: saline + Tween-80 + alcohol)?
The survivor count was 0 of 6.

What about the survivor count (dose: 200.0 mg/kg/injection, schedule: Q01DX005 (ip), vehicle: saline + Tween-80 + alcohol) of the same compound?
The survivor count was 0 of 6.

Which survivor count (dose: 25.0 mg/kg/injection, schedule: Q01DX009 (ip), vehicle: saline) does the source give for `CCOS(=O)(=O)c1ccc([N+](=O)[O-])cc1` here?
Its survivor count is 6 of 6.

What about the survivor count (dose: 50.0 mg/kg/injection, schedule: Q01DX009 (ip), vehicle: saline) of the same compound?
The survivor count was 6 of 6.

And the survivor count (dose: 200.0 mg/kg/injection, schedule: Q01DX009 (ip), vehicle: saline)?
Its survivor count is 4 of 6.

How did the survivor count (dose: 120.0 mg/kg/injection, schedule: Q01DX005 (ip), vehicle: saline with Tween-80) turn out when `Cc1ccc(NC(=S)C#N)c(C)c1` was run?
The survivor count was 3 of 6.

What about the survivor count (dose: 240.0 mg/kg/injection, schedule: Q01DX005 (ip), vehicle: saline with Tween-80) of the same compound?
The survivor count was 0 of 6.

`N#CN=CN1CCC(Cc2ccccc2)CC1` was tested. Which survivor count [1] did it give?
Its survivor count is 6 of 6.

For `O=C(Nc1ccccc1)OCc1c(COC(=O)Nc2ccccc2)c(-c2ccc(Cl)c(Cl)c2)n2c1CCC2`, which T/C (dose: 25.0 mg/kg/injection, schedule: Q01DX005 (ip), vehicle: distilled water + Tween-80) is on record?
The T/C was 134 % of control.

And the T/C (dose: 50.0 mg/kg/injection, schedule: Q01DX005 (ip), vehicle: distilled water + Tween-80)?
Its T/C is 126 and 145 % of control.

And the T/C (dose: 100.0 mg/kg/injection, schedule: Q01DX005 (ip), vehicle: distilled water + Tween-80)?
Its T/C is 135 % of control.

And the T/C (dose: 200.0 mg/kg/injection, schedule: Q01DX005 (ip), vehicle: distilled water + Tween-80)?
The T/C was 144 % of control.

And the survivor count (dose: 400.0 mg/kg/injection, schedule: Q01DX005 (ip), vehicle: distilled water + Tween-80)?
The survivor count was 5 of 6.

For `Cc1ccc2sc3c(ccc(=O)n3C)c(=O)c2c1`, which survivor count (dose: 400.0 mg/kg/injection, schedule: Q04DX002 (ip), vehicle: saline with Tween-80) is on record?
The survivor count was 0 of 6.

With `Cc1cc2c(C(C)C)c(O)c(O)c(C=Nc3ccc(C(=O)NCC(=O)O)cc3)c2c(O)c1-c1c(C)cc2c(C(C)C)c(O)c(O)c(C=Nc3ccc(C(=O)NCC(=O)O)cc3)c2c1O` as the compound, how does the survivor count [2] read?
Its survivor count is 6 of 6.

Which survivor count (dose: 100.0 mg/kg/injection, schedule: Q01DX009 (ip), vehicle: other) does the source give for `c1ccc2oc(NCCSSCCNc3nc4ccccc4o3)nc2c1` here?
The survivor count was 6 of 6.

What about the survivor count (dose: 200.0 mg/kg/injection, schedule: Q01DX009 (ip), vehicle: other) of the same compound?
The survivor count was 2 of 6.

`CN1[C@H]2CC[C@@H]1[C@@H](O)CC2` was tested. Which survivor count [2] did it give?
Its survivor count is 2 of 6.

With `CSc1nccc(=O)n1-c1ccccc1F` as the compound, how does the survivor count (dose: 200.0 mg/kg/injection, schedule: Q04DX002 (ip), vehicle: Klucel (hydroxypropylcellulose) (HPC)) read?
Its survivor count is 1 of 6.

And the survivor count (dose: 400.0 mg/kg/injection, schedule: Q04DX002 (ip), vehicle: Klucel (hydroxypropylcellulose) (HPC))?
Its survivor count is 0 of 6.
